According to the supplement of paper PMC5407854, “Inhibitor of ppGalNAc-T3-mediated O-glycosylation blocks cancer cell invasiveness and lowers FGF23 levels” (eLife, 2017):
The other results are listed elsewhere or left out. Most entries show no effect beyond the scatter of the controls.

system: ppGalNAc-T2 sensor; assay: T2 sensor activation Q score (MG/GFP ratio z-score vs DMSO controls) (SD units); higher = more sensor activation (inhibition of ppGalNAc-T2 glycosylation); conditions: HEK293 sensor cells; 10 µM; 6 h
Experimental: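 Cells were treated with compound at 10 uM for 6 h, then MG/GFP ratio was read by flow cytometry (10,000 cells per well, duplicate wells). Q = (R - R_neg)/SD_neg relative to DMSO vehicle controls; the signal rises when the glycosyltransferase is inhibited.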

| SMILES | T2 sensor activation Q score |
| --- | --- |
| COc1cc(C)c(CN2CCC(O)CC2)cc1C | 0.405 |
| Cc1occc1C(=O)Nc1ccc(F)cc1F | -0.305 |
| COc1cccc(N(C(C)=O)C2=C(N3CCCC3)C(=O)c3ccccc3C2=O)c1 | -0.615 |
| COc1cc(CN2CCCN(C)CC2)cc([N+](=O)[O-])c1O | 0.535 |
| O=S(=O)(c1ccc(Cl)c(Cl)c1)N1CCCCC1 | -0.455 |
| c1ccc2c(c1)-c1ccccc1C2N1CCNCC1 | -1.27 |
| COc1cc2c(cc1OC)CN(Cc1ccccc1Cl)CC2 | 0.26 |
| Cc1cccc(NC(=O)CCCC(=O)O)c1 | -0.7 |
| COc1ccc(CN2CCN(c3cccc(C)c3C)CC2)c(OC)c1OC | 1.11 |
| CC(=O)c1cccc(Nc2nc(-c3ccc(Cl)cc3)cs2)c1 | -0.67 |
| O=C1Cc2ccccc2C(c2ccccc2Cl)N1 (stereo not given) | 0.47 |
| Cc1ccc(OCC(O)CN)cc1 (stereo not given) | -0.215 |
| Cc1cc(C)n(C(=O)c2ccc(F)cc2)n1 | 0.5 |
| Cc1ccc(S(=O)(=O)n2ccc(C)n2)cc1 | 1.86 |
| NC(=O)C(=O)Nc1ccc(Cl)cc1 | -0.96 |
| CCCN(CCO)Cc1ccc(Cl)cc1Cl | 0.575 |
| O=C(CCCOc1ccc(Cl)cc1Cl)NO | 0.45 |
| COc1ccc(CN2CCC(O)CC2)cc1C | 0.655 |
| CCCNC(=O)NC(C)C12CC3CC(CC(C3)C1)C2 (stereo not given) | 0.06 |
| Fc1cccc(CN2CCc3c([nH]c4ccccc34)C2)c1 | -0.875 |

| SMILES | T2 sensor activation Q score |
| --- | --- |
| Cc1ccccc1NS(=O)(=O)c1ccc(Cl)cc1 | -0.875 |
| Cc1ccc2c(c1)c1c3n2CCCNC3CCC1 (stereo not given) | -0.67 |
| Nc1nnc(Cc2ccc(Cl)cc2Cl)s1 | -0.225 |
| OC1CCN(Cc2ccc(Br)s2)CC1 | 1.14 |
| CC(C)c1ccc(NC(=O)c2cnccn2)cc1 | -0.06 |
| O=c1c2c(nc3n1CC(O)CS3)-c1ccccc1CC21CCCC1 (stereo not given) | -0.445 |
| O=C(O)C1CCCCN1C(=O)c1ccccc1 (stereo not given) | -0.89 |
| CC(=O)c1cc(F)c(N2CCN(C(=O)c3cc(F)c(F)cc3C)CC2)cc1C | -0.17 |
| CC1CCN(S(=O)(=O)c2ccc(F)cc2)CC1 | 0.755 |
| Cc1ccsc1CN1CCN(c2ccc(Cl)cc2)CC1 | 0.105 |
| C=CCN1C(=O)C(O)=C(C(C)=O)C1c1ccc(Br)cc1 (stereo not given) | -0.61 |
| Cc1ccc(OCC(O)CN2CCN(c3ccccc3)CC2)c(C)c1 (stereo not given) | -0.645 |
| CN1C(=O)C(=O)C(=C(O)c2ccc(Cl)cc2)C1c1ccccc1 (stereo not given) | -1.08 |
| Cc1ccc(S(=O)(=O)Nc2ccc(Cl)c(Cl)c2)cc1 | 0.69 |
| CN(Cc1ccccc1)C(=O)c1ccc(Br)cc1 | -0.275 |
| CN(C)CCN(C)Cc1cccc(F)c1 | 0.615 |
| COc1ccc(CN2CCN(c3ccccc3)CC2)c(OC)c1OC | -0.485 |
| O=C(O)C1CCCCC1C(=O)Nc1ccc(Cl)cc1 (stereo not given) | 0.185 |
| CC(=O)Nc1ccc(S(=O)(=O)NC2CCCCC2)cc1 | -1.55 |
| Cc1nc2ccc3[nH]snc3c2n1 | -0.29 |

Part of the list above in order of length of the SMILES, low to high.

| SMILES | T2 sensor activation Q score |
| --- | --- |
| CN(Cc1ccccc1)C(=O)c1ccc(Br)cc1 | -0.275 |
| Cc1ccsc1CN1CCN(c2ccc(Cl)cc2)CC1 | 0.105 |
| CN1C(=O)C(=O)C(=C(O)c2ccc(Cl)cc2)C1c1ccccc1 (stereo not given) | -1.08 |
